# In PubChem BioAssay AID270 (DTP/NCI, 2004):
# The list shows only some results of the screen, not a fair sample: it gathers tests that were run many times, whatever their T/C, doses with no T/C, and many T/C values between a quarter and a half above the control. Other doses and runs of a compound stand elsewhere. T/C is the treated group as % of the vehicle group. Some entries give survivors of the animals treated and no T/C: the source holds a T/C of zero for them, seemingly a mark for toxic or unscored doses. Some survivor counts are full or nearly so, which does not show that the dose was tolerated: the source hardly ever lists a survival T/C far under the control, and the zero likely stands for such cases as well. Counts of survivors are from the toxicity check (mostly the fifth day) where no day follows; animals may have died later. Schedules are NCI's codes, read here as Q, the interval in days (D) or hours (H), X, the number of doses. Some entries hold several experiments; the values are given in rising order. For survival time, this PubChem deposit counts one and a half times the control or more as active, and values a quarter to a half above the control carry no call in these data; other NCI protocols may use other cut-offs.
# Tested on: BDF1 mice, s.c. Lewis lung carcinoma, T/C %
# Assay: NCI In Vivo Anticancer Drug Screen. Data for tumor model Lewis Lung Carcinoma (subcutaneous) in B6D2F1 (BDF1) mice
# Procedure, shortened: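 Antitumor effect in vivo is scored from survival or tumor burden, reported as treated relative to vehicle controls.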
# [1] = T/C endpoint: median survival time, dose: 12.5 mg/kg/injection, schedule: Q01DX009 (ip), vehicle: saline, higher T/C = longer survival
# [2] = T/C endpoint: median survival time, dose: 25.0 mg/kg/injection, schedule: Q01DX009 (ip), vehicle: saline, higher T/C = longer survival
# [3] = T/C endpoint: median survival time, dose: 100.0 mg/kg/injection, schedule: Q01DX009 (ip), vehicle: saline with Tween-80, higher T/C = longer survival
# [4] = T/C endpoint: median survival time, dose: 400.0 mg/kg/injection, schedule: Q01DX009 (ip), vehicle: saline with Tween-80, higher T/C = longer survival
structure (smiles),measurement,setting,value
COC1C(O)=C2C(=O)OC(C)(O)/C=C/C=C\C=C/C=C/C(c3ccccc3)NC(=O)/C=C/C=C/C=C/C=C/C2(C)C1O (configuration not stated),survivor count,"T/C endpoint: median survival time, dose: 1.25 mg/kg/injection, schedule: Q01DX009 (ip), vehicle: saline, higher T/C = longer survival",10 of 10
same,survivor count,"T/C endpoint: median survival time, dose: 2.5 mg/kg/injection, schedule: Q01DX009 (ip), vehicle: saline, higher T/C = longer survival",10 of 10
same,survivor count,"T/C endpoint: median survival time, dose: 5.0 mg/kg/injection, schedule: Q01DX009 (ip), vehicle: saline, higher T/C = longer survival",9 of 10
same,survivor count,"T/C endpoint: median survival time, dose: 10.0 mg/kg/injection, schedule: Q01DX009 (ip), vehicle: saline, higher T/C = longer survival",7 of 10
[Cl][Ni+2][Cl].[NH-]CCN1CC1,survivor count,[1],10 of 10
same,survivor count,[2],1 of 10 and 10 of 10
CCCCOB(/C=C/Sc1ccccc1)OCCCC,survivor count,[3],9 of 10
same,survivor count,"T/C endpoint: median survival time, dose: 200.0 mg/kg/injection, schedule: Q01DX009 (ip), vehicle: saline with Tween-80, higher T/C = longer survival",9 of 10
same,survivor count,[4],10 of 10
C=C(CC(=O)O)C(=O)O (tested in a mixture with another compound),survivor count,"T/C endpoint: median survival time, dose: 50.0 mg/kg/injection, schedule: Q01DX009 (ip), vehicle: other, higher T/C = longer survival",9 of 10
same,survivor count,"T/C endpoint: median survival time, dose: 100.0 mg/kg/injection, schedule: Q01DX009 (ip), vehicle: other, higher T/C = longer survival",10 of 10
same,survivor count,"T/C endpoint: median survival time, dose: 200.0 mg/kg/injection, schedule: Q01DX009 (ip), vehicle: other, higher T/C = longer survival",4 of 10
same,survivor count,"T/C endpoint: median survival time, dose: 400.0 mg/kg/injection, schedule: Q01DX009 (ip), vehicle: other, higher T/C = longer survival",1 of 10
O=C1NC(c2ccccc2Cl)Nc2ccccc21 (configuration not stated),survivor count,"T/C endpoint: median survival time, dose: 50.0 mg/kg/injection, schedule: Q01DX009 (ip), vehicle: Klucel (hydroxypropylcellulose) (HPC), higher T/C = longer survival",10 of 10
same,survivor count,"T/C endpoint: median survival time, dose: 100.0 mg/kg/injection, schedule: Q01DX009 (ip), vehicle: Klucel (hydroxypropylcellulose) (HPC), higher T/C = longer survival",10 of 10
same,survivor count,"T/C endpoint: median survival time, dose: 200.0 mg/kg/injection, schedule: Q01DX009 (ip), vehicle: Klucel (hydroxypropylcellulose) (HPC), higher T/C = longer survival",10 of 10
same,survivor count,"T/C endpoint: median survival time, dose: 400.0 mg/kg/injection, schedule: Q01DX009 (ip), vehicle: Klucel (hydroxypropylcellulose) (HPC), higher T/C = longer survival",10 of 10
O=C(/C(=C\c1ccccc1)CN1CCOCC1)c1ccc(Br)cc1,survivor count,[1],10 of 10
same,survivor count,[2],10 of 10
COc1ccc(-c2ccc(OC)c(OC)c2OC)c(N)c1,survivor count,[3],10 of 10
same,survivor count,[4],10 of 10
CCCCCCCCCCCCCCCCC(C(=O)O)C(O)(CC(=O)O)C(=O)O (configuration not stated),survivor count,"T/C endpoint: mean tumor weight, dose: 75.0 mg/kg/injection, schedule: Q01DX011 (ip), vehicle: carboxymethylcellulose (CMC), higher T/C = larger tumour",0 of 6
C[n+]1ccc(Nc2ccc(NC(=O)c3ccc(Nc4cc[n+](C)c5ccc(N)cc45)cc3)cc2)cc1,T/C,"T/C endpoint: median survival time, dose: 2.0 mg/kg/injection, schedule: Q01DX009 (ip), vehicle: Klucel (hydroxypropylcellulose) (HPC), higher T/C = longer survival",130 % of control
same,T/C,"T/C endpoint: median survival time, dose: 4.0 mg/kg/injection, schedule: Q01DX009 (ip), vehicle: Klucel (hydroxypropylcellulose) (HPC), higher T/C = longer survival",144 % of control
same,T/C,"T/C endpoint: median survival time, dose: 16.0 mg/kg/injection, schedule: Q01DX009 (ip), vehicle: Klucel (hydroxypropylcellulose) (HPC), higher T/C = longer survival",138 % of control
O=NN(CCCl)C(=O)Nc1ncc([N+](=O)[O-])s1,survivor count,"T/C endpoint: median survival time, dose: 230.0 mg/kg/injection, schedule: Q01DX001 (ip), vehicle: other, higher T/C = longer survival",1 of 8 on day 11
COc1cc(C[C@H]2c3cc(OC)c(OC)cc3CCN2C)c(Oc2cc3c(cc2OC)-c2c(OC)c(OC)cc4c2[C@H](C3)N(C)CC4)cc1OC,survivor count,"T/C endpoint: mean tumor weight, dose: 200.0 mg/kg/injection, schedule: Q01DX011 (ip), vehicle: carboxymethylcellulose (CMC), higher T/C = larger tumour",0 of 4
